Source: patent US5484770A (Hafslund Nycomed Bioreg AS, priority 1988, dated 1996)

Key:
[1] = general procedure: solution-phase peptide synthesis; p-nitrophenyl active esters (solution phase); Fmoc amino acid OPfp esters (solid); conditions: for step yield: coupling step
[2] = Fmoc solid-phase peptide synthesis; p-nitrophenyl active esters (solution phase); Fmoc amino acid OPfp esters (solid); conditions: whole synthesis

Row | Substance | final HPLC purity ([1]; whole synthesis, HPLC RP18, 214 nm) | isolated yield [2] | step yield [1]
1 | [pGlu]EDSK | More than 92% | 44% | 
2 | t-Boc-(γ-BENZYL)-L-GLUTAMYL-(β-BENZYL)-L-ASPARTYL-(S-p-METHOXYBENZYL)-L-CYSTEINYL-(ε-BENZYLOXYCARBONYL)-L-LYSINE BENZYLESTER (III) |  |  | 100%
3 | BENZYLOXYCARBONYL-L-PYROGLUTAMYL-(γ-BENZYL)-L-GLUTAMYL-(β-BENZYL)-L-ASPARTYL-(S-p-METHOXYBENZYL)-L-CYSTEINYL-(ε-BENZYL-OXYCARBONYL)-L-LYSINE BENZYLESTER (IV) |  |  | 96%

Where no end group is shown, it is not given here. [ ]: non-standard residue; d: D form. pGlu = O=C1CC[C@@H](C(=O)O)N1
